Values from PubChem BioAssay AID1259425 (University of Nebraska Medical Center, 2018).

Aim: 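Seek colon cancer weak points whose silencing resembles KSR1 loss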 (primary screen)
System: HCT116 human colon cancer cells
Reagents: siRNA pool against human genes, 50 nM siRNA
Measured: 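mRNA of six signature genes measured together by branched-DNA assay after 50 nM siRNA pool, blank removed, divided by geometric mean of two housekeeping genes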
Reading the numbers: BNIP3L mRNA: higher = more BNIP3L transcript after knockdown; NDRG1 mRNA: higher = more NDRG1 transcript after knockdown; BNIP3 mRNA: higher = more BNIP3 transcript after knockdown
The deposit covers about 14,000 reagents; shown is a random part of them. Further read-outs or replicates are left out here. The record does not give: the time to read-out.

The opening 6 records as a preview:
| gene | BNIP3L mRNA, set 1 | NDRG1 mRNA, set 1 | BNIP3 mRNA, set 1 |
| --- | --- | --- | --- |
| IRF7 | 0.167 | 0.144 | 0.345 |
| MIOS | 0.107 | 0.34 | 0.251 |
| ABCB1 | 0.17 | 0.231 | 0.358 |
| KLHL5 | 0.123 | 0.179 | 0.378 |
| SRPK2 | 0.178 | 0.147 | 0.418 |
| STK38L | 0.125 | 0.103 | 0.369 |

The list itself, from the start:
| gene | BNIP3L mRNA, set 1 | NDRG1 mRNA, set 1 | BNIP3 mRNA, set 1 |
| --- | --- | --- | --- |
| IRF7 | 0.167 | 0.144 | 0.345 |
| MIOS | 0.107 | 0.34 | 0.251 |
| ABCB1 | 0.17 | 0.231 | 0.358 |
| KLHL5 | 0.123 | 0.179 | 0.378 |
| SRPK2 | 0.178 | 0.147 | 0.418 |
| STK38L | 0.125 | 0.103 | 0.369 |
| EMP2 | 0.0542 | 0.26 | 0.28 |
| PIGG | 0.108 | 0.216 | 0.332 |
| HECW2 | 0.157 | 0.591 | 0.512 |
| SLAMF7 | 0.0857 | 0.119 | 0.348 |
| CST6 | 0.135 | 0.204 | 0.255 |
| IL17RD | 0.187 | 0.381 | 0.403 |
| PNPO | 0.0695 | 0.249 | 0.358 |
| NEU3 | 0.0675 | 0.0659 | 0.237 |
| PIK3CA | 0.102 | 0.0903 | 0.176 |
| ZPBP | 0.11 | 0.102 | 0.275 |
| SLC39A4 | 0.0691 | 0.213 | 0.481 |
| PINX1 | 0.0893 | 0.0925 | 0.301 |
| PPP2R3C | 0.102 | 0.122 | 0.214 |
| MDC1 | 0.0609 | 0.417 | 0.23 |
| BANP | 0.0566 | 0.0655 | 0.245 |
| CLPX | 0.129 | 0.139 | 0.33 |
| ZNF174 | 0.0699 | 0.145 | 0.143 |
| EIF3I | 0.127 | 0.0891 | 0.357 |
| TIMM17B | 0.0436 | 0.0655 | 0.31 |
| ODF2L | 0.106 | 0.102 | 0.256 |
| CDC27 | 0.0925 | 0.0675 | 0.229 |
| GOLGA7 | 0.117 | 0.236 | 0.392 |
| PAF1 | 0.0664 | 0.395 | 0.458 |
| GAS7 | 0.0992 | 0.125 | 0.262 |
| DTL | 0.0718 | 0.135 | 0.256 |
| UBTF | 0.178 | 0.0333 | 0.275 |
| COL19A1 | 0.12 | 0.471 | 0.387 |
| CYP3A4 | 0.0837 | 0.0988 | 0.226 |
| OSBPL2 | 0.14 | 0.0637 | 0.255 |
| IL18R1 | 0.0834 | 0.129 | 0.299 |
| MRPS34 | 0.169 | 0.367 | 0.217 |
| ARFRP1 | 0.0556 | 0.19 | 0.323 |
| ZSCAN20 | 0.0985 | 0.592 | 0.263 |
| SPAG9 | 0.052 | 0.491 | 0.284 |
| CHRFAM7A | 0.115 | 0.219 | 0.258 |
| DDX19A | 0.0944 | 0.238 | 0.265 |
| UCK2 | 0.155 | 0.158 | 0.516 |
| H2BC5 | 0.11 | 0.25 | 0.417 |
| LINC00467 | 0.102 | 0.24 | 0.319 |
| CCL11 | 0.113 | 0.349 | 0.38 |
| GPR68 | 0.079 | 0.194 | 0.272 |
| TAOK1 | 0.0928 | 0.0657 | 0.451 |
| KIF26A | 0.0999 | 0.19 | 0.167 |
| FMO5 | 0.211 | 0.162 | 0.295 |
